Experiment [1] addresses Myc-tagged full-length Na+/K+-ATPase β1 (UniProt P14094). The experiment in a line: co-IP; Flag-tagged full-length NDRG2 and Myc-tagged Na+/K+-ATPase β1 cotransfected into HEK293 cells for 48 h; IP with anti-Myc or anti-Flag, immunoblot; lysis buffer 50 mM Tris-HCl, 150 mM NaCl, 5 mM EDTA, 1% Lubrol; 10 h at 4 °C.
Experiment [2] deals with endogenous Na+/K+-ATPase β1 (mouse (endogenous in cultured mouse astrocytes and mouse brain)) (UniProt P14094). Description: co-IP; endogenous proteins in lysate of cultured mouse astrocytes; lysis buffer 50 mM Tris-HCl, 150 mM NaCl, 5 mM EDTA, 1% Lubrol; protein A/G Sepharose, 10 h at 4 °C.

These are yes or no findings as the source states them, for the method shown. In cells and extracts the contact can be indirect. Some entries that bind do so weakly or less than the wild type. Sequences can lack the tags named with a protein.

B1: Flag-tagged full-length NDRG2 (N-myc downstream regulated gene 2) (protein, UniProt Q9QYG0 1-371)
chain: MAELQEVQITEEKPLLPGQTPETAKEAELAARILLDQGQTHSVETPYGSVTFTVYGTPKPKRPAIFTYHDVGLNYKSCFQPLFRFGDMQEIIQNFVRVHVDAPGMEEGAPVFPLGYQYPSLDQLADMIPCILQYLNFSTIIGVGVGAGAYILSRYALNHPDTVEGLVLINIDPNAKGWMDWAAHKLTGLTSSIPDMILGHLFSQEELSGNSELIQKYRGIIQHAPNLENIELYWNSYNNRRDLNFERGGETTLKCPVMLVVGDQAPHEDAVVECNSKLDPTQTSFLKMADSGGQPQLTQPGKLTEAFKYFLQGMGYMASSCMTRLSRSRTASLTSAASIDGSRSRSRTLSQSSESGTLPSGPPGHTMEVSC
On to B1, for which the binding result in experiment [1] is listed as “binds”.

B2: endogenous NDRG2 (N-myc downstream regulated gene 2) (protein, UniProt Q9QYG0 1-371)
chain: MAELQEVQITEEKPLLPGQTPETAKEAELAARILLDQGQTHSVETPYGSVTFTVYGTPKPKRPAIFTYHDVGLNYKSCFQPLFRFGDMQEIIQNFVRVHVDAPGMEEGAPVFPLGYQYPSLDQLADMIPCILQYLNFSTIIGVGVGAGAYILSRYALNHPDTVEGLVLINIDPNAKGWMDWAAHKLTGLTSSIPDMILGHLFSQEELSGNSELIQKYRGIIQHAPNLENIELYWNSYNNRRDLNFERGGETTLKCPVMLVVGDQAPHEDAVVECNSKLDPTQTSFLKMADSGGQPQLTQPGKLTEAFKYFLQGMGYMASSCMTRLSRSRTASLTSAASIDGSRSRSRTLSQSSESGTLPSGPPGHTMEVSC
In the case of B2, the binding result in experiment [2] is “binds”.

The values above are taken from PMC7067740.
